According to publication PMC3390413:
Results are given in words; binding and its absence hold for the method and conditions named. In cells and extracts the contact can be indirect. For some assays here: Binding calls can cover weak binding; strength is not graded here. For some assays here: Sequences can lack the tags named with a protein.

B1: Myc-p115 (protein, UniProt O60763 1-962)
chain: MNFLRGVMGGQSAGPQHTEAETIQKLCDRVASSTLLDDRRNAVRALKSLSKKYRLEVGIQAMEHLIHVLQTDRSDSEIIGYALDTLYNIISNEEEEEVEENSTRQSEDLGSQFTEIFIKQQENVTLLLSLLEEFDFHVRWPGVKLLTSLLKQLGPQVQQIILVSPMGVSRLMDLLADSREVIRNDGVLLLQALTRSNGAIQKIVAFENAFERLLDIISEEGNSDGGIVVEDCLILLQNLLKNNNSNQNFFKEGSYIQRMKPWFEVGDENSGWSAQKVTNLHLMLQLVRVLVSPTNPPGATSSCQKAMFQCGLLQQLCTILMATGVPADILTETINTVSEVIRGCQVNQDYFASVNAPSNPPRPAIVVLLMSMVNERQPFVLRCAVLYCFQCFLYKNQKGQGEIVSTLLPSTIDATGNSVSAGQLLCGGLFSTDSLSNWCAAVALAHALQENATQKEQLLRVQLATSIGNPPVSLLQQCTNILSQGSKIQTRVGLLMLLCTWLSNCPIAVTHFLHNSANVPFLTGQIAENLGEEEQLVQGLCALLLGISIYFNDNSLESYMKEKLKQLIEKRIGKENFIEKLGFISKHELYSRASQKPQPNFPSPEYMIFDHEFTKLVKELEGVITKAIYKSSEEDKKEEEVKKTLEQHDNIVTHYKNMIREQDLQLEELRQQVSTLKCQNEQLQTAVTQQVSQIQQHKDQYNLLKIQLGKDNQHQGSYSEGAQMNGIQPEEIGRLREEIEELKRNQELLQSQLTEKDSMIENMKSSQTSGTNEQSSAIVSARDSEQVAELKQELATLKSQLNSQSVEITKLQTEKQELLQKTEAFAKSVEVQGETETIIATKTTDVEGRLSALLQETKELKNEIKALSEERTAIKEQLDSSNSTIAILQTEKDKLELEITDSKKEQDDLLVLLADQDQKILSLKNKLKDLGHPVEEEDELESGDQEDEDDESEDPGKDLDHI
B2: endogenous p115 (protein, UniProt O60763 1-962)
chain: MNFLRGVMGGQSAGPQHTEAETIQKLCDRVASSTLLDDRRNAVRALKSLSKKYRLEVGIQAMEHLIHVLQTDRSDSEIIGYALDTLYNIISNEEEEEVEENSTRQSEDLGSQFTEIFIKQQENVTLLLSLLEEFDFHVRWPGVKLLTSLLKQLGPQVQQIILVSPMGVSRLMDLLADSREVIRNDGVLLLQALTRSNGAIQKIVAFENAFERLLDIISEEGNSDGGIVVEDCLILLQNLLKNNNSNQNFFKEGSYIQRMKPWFEVGDENSGWSAQKVTNLHLMLQLVRVLVSPTNPPGATSSCQKAMFQCGLLQQLCTILMATGVPADILTETINTVSEVIRGCQVNQDYFASVNAPSNPPRPAIVVLLMSMVNERQPFVLRCAVLYCFQCFLYKNQKGQGEIVSTLLPSTIDATGNSVSAGQLLCGGLFSTDSLSNWCAAVALAHALQENATQKEQLLRVQLATSIGNPPVSLLQQCTNILSQGSKIQTRVGLLMLLCTWLSNCPIAVTHFLHNSANVPFLTGQIAENLGEEEQLVQGLCALLLGISIYFNDNSLESYMKEKLKQLIEKRIGKENFIEKLGFISKHELYSRASQKPQPNFPSPEYMIFDHEFTKLVKELEGVITKAIYKSSEEDKKEEEVKKTLEQHDNIVTHYKNMIREQDLQLEELRQQVSTLKCQNEQLQTAVTQQVSQIQQHKDQYNLLKIQLGKDNQHQGSYSEGAQMNGIQPEEIGRLREEIEELKRNQELLQSQLTEKDSMIENMKSSQTSGTNEQSSAIVSARDSEQVAELKQELATLKSQLNSQSVEITKLQTEKQELLQKTEAFAKSVEVQGETETIIATKTTDVEGRLSALLQETKELKNEIKALSEERTAIKEQLDSSNSTIAILQTEKDKLELEITDSKKEQDDLLVLLADQDQKILSLKNKLKDLGHPVEEEDELESGDQEDEDDESEDPGKDLDHI

Experiments:
FLAG-TRAF3 (human) = test: co-IP; tagged proteins co-expressed in 293T cells; immunoprecipitation of whole cell extracts and immunoblot
[1] = biological target: FLAG-TRAF3 114–568 (human); test: as above
FLAG-TRAF3 1–117 (human) = test: as above
[2] = biological target: FLAG-TRAF3 389–568 (human); test: as above
[3] = biological target: FLAG-TRAF3 259–568 (human); test: as above
[4] = biological target: FLAG-TRAF3 Y440/Q442A (human); test: as above
FLAG-TRAF3 1–381 (human) = test: as above
[5] = biological target: endogenous TRAF3 (human (endogenous in HeLa and HEK293)); test: co-IP; endogenous proteins; HeLa whole-cell lysates; IP with anti-TRAF3 (H-20), immunoblot; cells untreated or treated with SeV, poly I:C or poly dA:dT (for MAVS: cells with nonsilencing RNA duplexes, SeV infection)

Binder	binding (FLAG-TRAF3 (human))	binding [1]	binding (FLAG-TRAF3 1–117 (human))	binding [2]	binding [3]	binding [4]	binding (FLAG-TRAF3 1–381 (human))	binding [5]
B1	binds	no binding	no binding	no binding	no binding	binds	no binding	–
B2	–	–	–	–	–	–	–	binds weakly
